{"sequences": {"note": "The chains behind the UniProt entries cited, without tags or fusion partners. Where a name states a change or a piece, a line headed by the entry shows the natural chain unless it says otherwise.", "UniProt Q96MD7": "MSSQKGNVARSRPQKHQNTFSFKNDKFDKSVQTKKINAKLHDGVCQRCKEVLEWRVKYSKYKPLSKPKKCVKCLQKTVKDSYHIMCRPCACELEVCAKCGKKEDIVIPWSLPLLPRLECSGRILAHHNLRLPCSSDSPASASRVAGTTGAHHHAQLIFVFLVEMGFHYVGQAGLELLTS", "UniProt P0DMB2": "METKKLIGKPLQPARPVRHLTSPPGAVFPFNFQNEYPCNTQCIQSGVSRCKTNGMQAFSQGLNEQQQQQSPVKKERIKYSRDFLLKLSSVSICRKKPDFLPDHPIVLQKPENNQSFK", "UniProt Q6ZRI6": "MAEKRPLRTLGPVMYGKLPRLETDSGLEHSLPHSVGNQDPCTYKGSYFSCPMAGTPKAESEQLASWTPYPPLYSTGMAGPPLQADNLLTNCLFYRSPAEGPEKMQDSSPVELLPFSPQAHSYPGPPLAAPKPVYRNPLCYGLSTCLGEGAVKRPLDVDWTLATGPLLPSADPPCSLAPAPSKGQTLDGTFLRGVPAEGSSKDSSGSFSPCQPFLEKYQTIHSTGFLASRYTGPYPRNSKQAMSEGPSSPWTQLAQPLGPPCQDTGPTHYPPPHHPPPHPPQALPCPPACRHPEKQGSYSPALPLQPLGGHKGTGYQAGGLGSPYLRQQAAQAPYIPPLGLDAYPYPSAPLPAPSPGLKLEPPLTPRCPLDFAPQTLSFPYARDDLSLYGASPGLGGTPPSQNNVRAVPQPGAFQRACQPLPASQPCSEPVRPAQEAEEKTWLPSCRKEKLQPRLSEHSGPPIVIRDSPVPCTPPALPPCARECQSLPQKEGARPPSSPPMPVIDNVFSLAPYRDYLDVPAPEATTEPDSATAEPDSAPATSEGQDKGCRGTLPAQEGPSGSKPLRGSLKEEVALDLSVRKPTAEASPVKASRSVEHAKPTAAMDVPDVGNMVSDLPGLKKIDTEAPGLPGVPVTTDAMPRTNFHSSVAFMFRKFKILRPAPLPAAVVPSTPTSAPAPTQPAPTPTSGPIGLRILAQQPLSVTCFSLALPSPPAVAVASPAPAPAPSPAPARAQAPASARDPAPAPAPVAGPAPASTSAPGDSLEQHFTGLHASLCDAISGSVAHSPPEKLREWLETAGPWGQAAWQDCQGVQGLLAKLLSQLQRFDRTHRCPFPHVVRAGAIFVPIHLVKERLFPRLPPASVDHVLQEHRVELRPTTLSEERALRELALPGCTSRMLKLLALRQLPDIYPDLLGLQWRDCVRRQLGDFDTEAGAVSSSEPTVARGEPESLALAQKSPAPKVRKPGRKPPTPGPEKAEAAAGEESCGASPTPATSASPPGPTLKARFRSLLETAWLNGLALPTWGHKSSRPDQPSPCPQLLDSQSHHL", "UniProt Q16581": "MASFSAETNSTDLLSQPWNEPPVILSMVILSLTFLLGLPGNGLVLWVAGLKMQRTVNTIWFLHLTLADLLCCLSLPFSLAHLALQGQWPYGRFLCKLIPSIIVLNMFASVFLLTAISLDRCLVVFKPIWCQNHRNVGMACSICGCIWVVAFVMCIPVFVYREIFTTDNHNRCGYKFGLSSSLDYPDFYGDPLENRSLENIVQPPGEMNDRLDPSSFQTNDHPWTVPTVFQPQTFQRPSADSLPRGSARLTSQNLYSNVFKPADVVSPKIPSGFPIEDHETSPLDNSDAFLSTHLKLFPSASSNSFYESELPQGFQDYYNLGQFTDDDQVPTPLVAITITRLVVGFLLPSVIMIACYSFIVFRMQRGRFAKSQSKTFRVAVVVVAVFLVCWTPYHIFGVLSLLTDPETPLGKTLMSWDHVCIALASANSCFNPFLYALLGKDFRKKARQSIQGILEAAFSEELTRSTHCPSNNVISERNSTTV", "UniProt Q9BRD0": "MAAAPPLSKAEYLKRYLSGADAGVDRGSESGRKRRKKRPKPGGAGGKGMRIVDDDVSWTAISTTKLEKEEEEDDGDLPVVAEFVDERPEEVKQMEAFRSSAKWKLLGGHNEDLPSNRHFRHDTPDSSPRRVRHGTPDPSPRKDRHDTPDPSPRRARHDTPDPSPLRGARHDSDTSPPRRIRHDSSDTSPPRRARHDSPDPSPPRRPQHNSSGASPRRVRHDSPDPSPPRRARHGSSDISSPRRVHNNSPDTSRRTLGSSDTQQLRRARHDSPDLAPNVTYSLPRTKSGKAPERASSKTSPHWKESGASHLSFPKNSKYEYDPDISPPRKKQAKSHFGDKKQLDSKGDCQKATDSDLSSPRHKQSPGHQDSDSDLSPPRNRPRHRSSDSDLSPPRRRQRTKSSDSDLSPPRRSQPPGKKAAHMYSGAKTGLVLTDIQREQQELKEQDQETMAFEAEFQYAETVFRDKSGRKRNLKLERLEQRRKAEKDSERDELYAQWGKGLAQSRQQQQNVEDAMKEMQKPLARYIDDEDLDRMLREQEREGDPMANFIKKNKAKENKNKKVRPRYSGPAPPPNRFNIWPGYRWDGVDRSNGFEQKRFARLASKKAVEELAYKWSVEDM", "UniProt Q96LT7": "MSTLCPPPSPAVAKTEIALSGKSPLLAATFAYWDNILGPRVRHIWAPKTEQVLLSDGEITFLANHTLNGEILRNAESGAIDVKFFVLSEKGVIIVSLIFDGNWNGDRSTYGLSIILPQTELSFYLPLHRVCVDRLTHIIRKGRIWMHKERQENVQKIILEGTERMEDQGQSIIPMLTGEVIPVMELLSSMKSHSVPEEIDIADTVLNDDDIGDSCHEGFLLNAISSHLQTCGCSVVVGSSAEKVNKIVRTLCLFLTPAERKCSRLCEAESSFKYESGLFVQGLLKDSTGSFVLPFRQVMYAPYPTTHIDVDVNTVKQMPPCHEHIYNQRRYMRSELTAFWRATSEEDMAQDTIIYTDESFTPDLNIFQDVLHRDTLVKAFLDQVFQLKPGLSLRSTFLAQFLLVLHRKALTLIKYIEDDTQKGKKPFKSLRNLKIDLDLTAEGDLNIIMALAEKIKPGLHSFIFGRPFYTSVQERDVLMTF", "UniProt Q0VDD7": "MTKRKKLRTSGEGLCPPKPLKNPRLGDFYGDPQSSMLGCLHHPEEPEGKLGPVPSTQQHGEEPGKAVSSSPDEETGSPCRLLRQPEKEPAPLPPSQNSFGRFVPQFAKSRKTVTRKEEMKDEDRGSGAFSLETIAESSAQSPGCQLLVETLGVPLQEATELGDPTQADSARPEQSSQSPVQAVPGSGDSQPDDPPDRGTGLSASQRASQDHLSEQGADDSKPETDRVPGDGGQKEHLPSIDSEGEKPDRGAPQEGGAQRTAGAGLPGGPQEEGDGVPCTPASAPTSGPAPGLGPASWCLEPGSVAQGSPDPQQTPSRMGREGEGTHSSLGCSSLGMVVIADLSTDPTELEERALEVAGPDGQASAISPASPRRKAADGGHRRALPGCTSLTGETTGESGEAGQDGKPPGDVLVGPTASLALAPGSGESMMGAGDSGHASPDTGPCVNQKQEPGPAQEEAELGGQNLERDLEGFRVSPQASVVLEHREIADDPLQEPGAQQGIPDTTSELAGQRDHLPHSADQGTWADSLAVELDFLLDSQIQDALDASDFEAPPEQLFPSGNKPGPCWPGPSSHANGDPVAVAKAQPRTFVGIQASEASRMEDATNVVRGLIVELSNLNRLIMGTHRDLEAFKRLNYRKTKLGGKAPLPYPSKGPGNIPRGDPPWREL", "UniProt Q8NDD1": "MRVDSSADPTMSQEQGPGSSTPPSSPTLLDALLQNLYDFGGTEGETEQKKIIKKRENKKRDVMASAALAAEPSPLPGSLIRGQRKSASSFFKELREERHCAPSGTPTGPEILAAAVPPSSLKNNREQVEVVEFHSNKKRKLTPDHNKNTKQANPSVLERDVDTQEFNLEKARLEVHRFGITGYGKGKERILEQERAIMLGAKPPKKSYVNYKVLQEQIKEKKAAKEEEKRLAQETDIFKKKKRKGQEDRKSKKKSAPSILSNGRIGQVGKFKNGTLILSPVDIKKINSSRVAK", "UniProt Q99622": "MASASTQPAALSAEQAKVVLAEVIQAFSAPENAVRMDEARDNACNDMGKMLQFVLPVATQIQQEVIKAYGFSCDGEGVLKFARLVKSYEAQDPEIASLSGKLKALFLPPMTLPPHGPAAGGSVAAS", "UniProt Q9BUW7": "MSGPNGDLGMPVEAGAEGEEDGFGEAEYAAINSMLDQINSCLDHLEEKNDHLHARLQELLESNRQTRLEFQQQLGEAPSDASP", "UniProt Q9BSJ5": "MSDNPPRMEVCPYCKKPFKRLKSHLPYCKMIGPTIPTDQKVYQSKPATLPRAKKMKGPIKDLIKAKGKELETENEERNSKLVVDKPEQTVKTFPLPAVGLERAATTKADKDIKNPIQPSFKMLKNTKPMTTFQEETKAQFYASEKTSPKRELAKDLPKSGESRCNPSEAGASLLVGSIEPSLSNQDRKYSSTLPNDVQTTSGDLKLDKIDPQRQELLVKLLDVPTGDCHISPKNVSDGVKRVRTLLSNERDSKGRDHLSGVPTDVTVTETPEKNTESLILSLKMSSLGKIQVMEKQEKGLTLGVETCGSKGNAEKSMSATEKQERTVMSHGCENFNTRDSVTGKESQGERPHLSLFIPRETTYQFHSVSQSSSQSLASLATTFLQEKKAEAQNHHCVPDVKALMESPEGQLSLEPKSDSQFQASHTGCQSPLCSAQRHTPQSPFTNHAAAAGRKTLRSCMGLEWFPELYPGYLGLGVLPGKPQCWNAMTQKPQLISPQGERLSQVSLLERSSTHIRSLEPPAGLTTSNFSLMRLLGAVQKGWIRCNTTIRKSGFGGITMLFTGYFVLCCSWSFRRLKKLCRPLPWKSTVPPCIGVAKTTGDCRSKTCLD", "UniProt Q9GZU0": "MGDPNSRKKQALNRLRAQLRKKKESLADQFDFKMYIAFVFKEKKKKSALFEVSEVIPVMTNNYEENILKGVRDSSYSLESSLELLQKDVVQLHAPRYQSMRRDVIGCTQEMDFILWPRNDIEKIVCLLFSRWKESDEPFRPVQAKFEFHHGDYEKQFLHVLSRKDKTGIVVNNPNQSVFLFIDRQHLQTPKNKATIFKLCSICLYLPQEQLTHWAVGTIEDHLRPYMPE", "UniProt P04003": "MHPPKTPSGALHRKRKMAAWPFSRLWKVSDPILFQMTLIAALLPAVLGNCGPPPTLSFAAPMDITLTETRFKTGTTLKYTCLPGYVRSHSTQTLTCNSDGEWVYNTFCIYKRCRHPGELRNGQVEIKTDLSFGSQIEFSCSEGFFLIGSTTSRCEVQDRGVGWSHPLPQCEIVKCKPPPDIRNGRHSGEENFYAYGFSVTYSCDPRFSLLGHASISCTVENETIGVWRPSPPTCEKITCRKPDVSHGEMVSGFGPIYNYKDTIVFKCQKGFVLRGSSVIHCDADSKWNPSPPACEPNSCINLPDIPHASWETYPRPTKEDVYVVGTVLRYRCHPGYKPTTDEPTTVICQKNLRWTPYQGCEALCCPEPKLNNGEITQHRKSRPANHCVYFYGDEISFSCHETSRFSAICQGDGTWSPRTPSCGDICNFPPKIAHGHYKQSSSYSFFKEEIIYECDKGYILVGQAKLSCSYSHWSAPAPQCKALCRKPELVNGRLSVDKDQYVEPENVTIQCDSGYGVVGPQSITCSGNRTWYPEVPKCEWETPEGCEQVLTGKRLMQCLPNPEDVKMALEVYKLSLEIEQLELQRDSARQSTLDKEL", "UniProt Q9NS00": "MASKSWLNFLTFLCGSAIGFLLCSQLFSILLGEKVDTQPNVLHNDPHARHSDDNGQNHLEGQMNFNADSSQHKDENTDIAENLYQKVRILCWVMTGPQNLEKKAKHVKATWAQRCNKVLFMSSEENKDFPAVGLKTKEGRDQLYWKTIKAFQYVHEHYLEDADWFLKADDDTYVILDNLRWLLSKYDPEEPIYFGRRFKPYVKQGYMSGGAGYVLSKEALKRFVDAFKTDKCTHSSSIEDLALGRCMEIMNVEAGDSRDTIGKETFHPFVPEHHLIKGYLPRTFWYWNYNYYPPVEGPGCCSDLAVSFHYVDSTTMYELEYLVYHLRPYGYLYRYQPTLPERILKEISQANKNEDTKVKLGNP", "UniProt Q86VG3": "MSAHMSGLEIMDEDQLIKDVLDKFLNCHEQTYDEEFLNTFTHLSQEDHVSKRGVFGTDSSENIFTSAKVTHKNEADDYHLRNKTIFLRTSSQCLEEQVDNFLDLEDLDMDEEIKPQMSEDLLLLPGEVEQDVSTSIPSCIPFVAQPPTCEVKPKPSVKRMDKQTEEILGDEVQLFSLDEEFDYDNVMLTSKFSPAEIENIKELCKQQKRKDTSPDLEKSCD", "UniProt Q86Y37": "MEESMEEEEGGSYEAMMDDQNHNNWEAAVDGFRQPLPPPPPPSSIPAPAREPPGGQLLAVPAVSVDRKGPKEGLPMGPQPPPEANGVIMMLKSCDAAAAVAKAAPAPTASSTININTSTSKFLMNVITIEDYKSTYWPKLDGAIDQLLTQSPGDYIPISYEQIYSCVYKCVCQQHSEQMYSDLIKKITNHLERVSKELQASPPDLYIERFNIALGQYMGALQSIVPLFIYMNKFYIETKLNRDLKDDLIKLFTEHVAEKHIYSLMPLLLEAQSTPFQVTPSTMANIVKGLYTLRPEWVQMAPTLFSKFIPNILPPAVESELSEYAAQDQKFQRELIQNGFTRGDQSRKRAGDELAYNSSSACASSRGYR", "UniProt Q9BSF0": "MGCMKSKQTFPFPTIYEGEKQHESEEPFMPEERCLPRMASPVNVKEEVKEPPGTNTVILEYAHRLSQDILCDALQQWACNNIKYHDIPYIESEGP"}, "source": "the supplement of paper PMC10849652", "note": "The list shows a part of the results."}
{"compound": "C1=CC=C(C=C1)[C@H](COC2=CC3=C(C=C2)NC(=O)N3)NC(=O)C4=CC=CN(C4=O)CC5=CC(=C(C=C5)F)F", "assay": "log2 fold change, soluble protein after heating vs DMSO (PISA); higher = thermal stabilisation; K562 lysate, 10 uM; active = over 0.2 and 3.5 SD of the protein, either way, in both replicates (recomputed)", "outline": "(§1)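 Pellets of K562 cells were dounce-homogenised in PBS pH 7.4 with 1 mM MgCl2, and the crude extract was held at 1 mg/mL protein for a 30 min treatment with 10 μM compound. Aliquots were heated for 3 min over 48°C-58°C and pooled before NP-40 was added to 0.5% at 4°C. The supernatant from 21,000xg for 90 min was quantified by TMTpro 16plex LC-MS/MS with channel sums equalised. Values are reported from duplicates as log-two fold change in thermal stability relative to solvent controls.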"}
{"target": "C9orf85 isoform 1 (UniProt Q96MD7)", "log2 fold change": "inactive: 0.046"}
{"target": "C8orf88 (UniProt P0DMB2)", "log2 fold change": "inactive: 0.033"}
{"target": "C15orf39 (UniProt Q6ZRI6)", "log2 fold change": "inactive: -0.095"}
{"target": "C3AR1 (UniProt Q16581)", "log2 fold change": "inactive: 0.121"}
{"target": "BUD13 (UniProt Q9BRD0)", "log2 fold change": "inactive: -0.037"}
{"target": "C9orf72 (UniProt Q96LT7)", "log2 fold change": "inactive: -0.012"}
{"compound": "CC1=C(SC2=C1C(=N[C@H](C3=NN=C(N32)C)CC(=O)N)C4=CC=C(C=C4)Cl)C", "assay": "log2 fold change, soluble protein after heating vs DMSO (PISA); higher = thermal stabilisation; K562 lysate, 10 uM; active = over 0.2 and 3.5 SD of the protein, either way, in both replicates (recomputed)", "outline": "as §1"}
{"target": "C9orf85 isoform 1 (UniProt Q96MD7)", "log2 fold change": "inactive: -0.063"}
{"target": "C8orf88 (UniProt P0DMB2)", "log2 fold change": "inactive: 0.051"}
{"target": "C15orf39 (UniProt Q6ZRI6)", "log2 fold change": "inactive: 0.049"}
{"target": "C3AR1 (UniProt Q16581)", "log2 fold change": "inactive: 0.024"}
{"target": "BUD13 (UniProt Q9BRD0)", "log2 fold change": "inactive: 0.068"}
{"target": "C9orf72 (UniProt Q96LT7)", "log2 fold change": "inactive: 0.049"}
{"compound": "CC1=C2C(=CC=C1)N=C(N(C2=O)C3=CC=CC=C3C)CN4C=NC5=C(N=CN=C54)N", "assay": "log2 fold change, soluble protein after heating vs DMSO (PISA); higher = thermal stabilisation; K562 lysate, 10 uM; active = over 0.2 and 3.5 SD of the protein, either way, in both replicates (recomputed)", "outline": "as §1"}
{"target": "C19orf57 (UniProt Q0VDD7)", "log2 fold change": "inactive: -0.174"}
{"target": "C1orf226 isoform 2 (UniProt A1L170)", "log2 fold change": "inactive: -0.052"}
{"target": "CAPN1 (UniProt E9PLX0)", "log2 fold change": "inactive: 0.206"}
{"target": "C5orf34 (UniProt Q96MH7)", "log2 fold change": "inactive: 0.151"}
{"target": "C1orf131 isoform 5 (UniProt Q8NDD1)", "log2 fold change": "inactive: 0.096"}
{"target": "C12orf57 (UniProt Q99622)", "log2 fold change": "inactive: 0.147"}
{"target": "CAD (UniProt H7BZB3)", "log2 fold change": "inactive: -0.011"}
{"target": "C9orf16 (UniProt Q9BUW7)", "log2 fold change": "inactive: -0.069"}
{"target": "C6orf136 isoform 4 (UniProt Q5SQH8)", "log2 fold change": "inactive: -0.198"}
{"target": "C17orf80 (UniProt Q9BSJ5)", "log2 fold change": "inactive: 0.058"}
{"target": "CAPNS1 (UniProt K7ES78)", "log2 fold change": "inactive: -0.094"}
{"target": "C6orf62 (UniProt Q9GZU0)", "log2 fold change": "inactive: 0.107"}
{"target": "CANX (UniProt D6RHJ3)", "log2 fold change": "inactive: 0.072"}
{"target": "C12orf60 (UniProt Q5U649)", "log2 fold change": "inactive: 0"}
{"target": "C4BPA (UniProt P04003)", "log2 fold change": "inactive: -0.096"}
{"target": "C1GALT1 (UniProt Q9NS00)", "log2 fold change": "inactive: 0.069"}
{"target": "CAMSAP3 isoform 2 (UniProt Q9P1Y5)", "log2 fold change": "inactive: -0.03"}
{"target": "C11orf74 (UniProt Q86VG3)", "log2 fold change": "inactive: 0.005"}
{"target": "CACUL1 (UniProt Q86Y37)", "log2 fold change": "inactive: -0.046"}
{"target": "CAMSAP2 (UniProt Q08AD1)", "log2 fold change": "inactive: 0.013"}
{"compound": "Cc1sc2c(c1C)C(c1ccc(Cl)cc1)=N[C@@H](CC(=O)OC(C)(C)C)c1nnc(C)n1-2", "assay": "log2 fold change, soluble protein after heating vs DMSO (PISA); higher = thermal stabilisation; K562 lysate, 10 uM; active = over 0.2 and 3.5 SD of the protein, either way, in both replicates (recomputed)", "outline": "as §1"}
{"target": "C19orf57 (UniProt Q0VDD7)", "log2 fold change": "inactive: -0.007"}
{"target": "CAMKMT (UniProt Q7Z624)", "log2 fold change": "inactive: -0.111"}
{"target": "C1orf159 isoform 4 (UniProt Q96HA4)", "log2 fold change": "inactive: -0.024"}
{"target": "C9orf85 isoform 1 (UniProt Q96MD7)", "log2 fold change": "inactive: -0.023"}
{"target": "C17orf53 (UniProt Q8N3J3)", "log2 fold change": "inactive: -0.085"}
{"target": "C5orf34 (UniProt Q96MH7)", "log2 fold change": "inactive: -0.091"}
{"target": "C8orf88 (UniProt P0DMB2)", "log2 fold change": "inactive: 0.051"}
{"target": "C1orf131 isoform 5 (UniProt Q8NDD1)", "log2 fold change": "inactive: -0.009"}
{"target": "C12orf57 (UniProt Q99622)", "log2 fold change": "inactive: 0.325"}
{"target": "C9orf16 (UniProt Q9BUW7)", "log2 fold change": "inactive: 0.093"}
{"target": "C6orf136 isoform 4 (UniProt Q5SQH8)", "log2 fold change": "inactive: -0.059"}
{"target": "CAPNS1 (UniProt K7ES78)", "log2 fold change": "inactive: -0.216"}
{"target": "C15orf39 (UniProt Q6ZRI6)", "log2 fold change": "inactive: 0.032"}
{"target": "C1orf109 (UniProt Q9NX04)", "log2 fold change": "inactive: -0.236"}
{"target": "C19orf12 (UniProt Q9NSK7)", "log2 fold change": "inactive: 0.085"}
{"target": "C6orf62 (UniProt Q9GZU0)", "log2 fold change": "inactive: 0.043"}
{"target": "BUD13 (UniProt Q9BRD0)", "log2 fold change": "inactive: -0.162"}
{"target": "C4orf46 (UniProt Q504U0)", "log2 fold change": "inactive: 0.082"}
{"target": "C12orf60 (UniProt Q5U649)", "log2 fold change": "inactive: 0.128"}
{"target": "C4BPA (UniProt P04003)", "log2 fold change": "inactive: 0.085"}
{"target": "C1GALT1 (UniProt Q9NS00)", "log2 fold change": "inactive: 0.028"}
{"target": "C11orf74 (UniProt Q86VG3)", "log2 fold change": "inactive: 0.065"}
{"target": "CACUL1 (UniProt Q86Y37)", "log2 fold change": "inactive: 0.088"}
{"target": "CAMSAP2 (UniProt Q08AD1)", "log2 fold change": "inactive: 0.042"}
{"target": "C9orf72 (UniProt Q96LT7)", "log2 fold change": "inactive: -0.028"}
{"compound": "c1ccc([C@@H]2C[C@H]2NC2CCNCC2)cc1", "assay": "log2 fold change, soluble protein after heating vs DMSO (PISA); higher = thermal stabilisation; K562 lysate, 10 uM; active = over 0.2 and 3.5 SD of the protein, either way, in both replicates (recomputed)", "outline": "as §1"}
{"target": "C19orf57 (UniProt Q0VDD7)", "log2 fold change": "inactive: 0.046"}
{"target": "C11orf24 (UniProt Q96F05)", "log2 fold change": "inactive: -0.005"}
{"target": "CACNA1C isoform 2 (UniProt Q13936)", "log2 fold change": "inactive: -0.592"}
{"target": "CAPN1 (UniProt E9PLX0)", "log2 fold change": "inactive: -0.013"}
{"target": "C1orf159 isoform 4 (UniProt Q96HA4)", "log2 fold change": "inactive: -0.055"}
{"target": "C2orf88 (UniProt Q9BSF0)", "log2 fold change": "inactive: 0.013"}
{"target": "C9orf85 isoform 1 (UniProt Q96MD7)", "log2 fold change": "inactive: 0.005"}
{"target": "CA1 (UniProt E5RIF9)", "log2 fold change": "inactive: 0.18"}
{"target": "C8orf88 (UniProt P0DMB2)", "log2 fold change": "inactive: -0.002"}
{"target": "C1orf131 isoform 5 (UniProt Q8NDD1)", "log2 fold change": "inactive: -0.108"}
{"target": "C1RL (UniProt Q9NZP8)", "log2 fold change": "inactive: 0.057"}
{"target": "CAD (UniProt H7BZB3)", "log2 fold change": "inactive: -0.003"}
{"target": "C9orf16 (UniProt Q9BUW7)", "log2 fold change": "inactive: -0.039"}
{"target": "C17orf80 (UniProt Q9BSJ5)", "log2 fold change": "inactive: -0.126"}
{"target": "C15orf39 (UniProt Q6ZRI6)", "log2 fold change": "inactive: 0.161"}
{"target": "C6orf62 (UniProt Q9GZU0)", "log2 fold change": "inactive: 0.079"}
{"target": "C3AR1 (UniProt Q16581)", "log2 fold change": "inactive: -0.083"}
{"target": "BUD13 (UniProt Q9BRD0)", "log2 fold change": "inactive: 0.029"}
{"target": "CAP1 (UniProt Q5T0R8)", "log2 fold change": "inactive: 0.05"}
{"target": "C4BPA (UniProt P04003)", "log2 fold change": "inactive: -0.01"}
{"target": "C1GALT1 (UniProt Q9NS00)", "log2 fold change": "inactive: 0.075"}
{"target": "CALCOCO2 isoform 5 (UniProt Q13137)", "log2 fold change": "inactive: -0.028"}
{"target": "CACUL1 (UniProt Q86Y37)", "log2 fold change": "inactive: 0.111"}
{"target": "CAMSAP2 (UniProt Q08AD1)", "log2 fold change": "inactive: -0.032"}
{"target": "C9orf72 (UniProt Q96LT7)", "log2 fold change": "inactive: 0.002"}
{"target": "C14orf119 (UniProt Q9NWQ9)", "log2 fold change": "inactive: 0.137"}
